From US20230310504A1, “PLATELET MEMBRANE COATED NANOPARTICLES AND USES THEREOF” (CELLO THERAPEUTICS, INC., priority 2020, published 2023)
At least one structure is not confirmed: it was looked up by name or label, or the drawing left a doubt.

Columns and labels:
[1] = test system: immune cell populations in DLN and MC38 tumor; assay: In vivo immune profiling (DLN and tumor) in MC38 tumor-bearing mice; details: low dose, day 7
MC38 tumors = details: total of 600 µg R848, systemic administration; cited from earlier work
[2] = test system: bone marrow-derived cells (BMDCs); assay: Nanoparticle activity on BMDCs (CD80/CD86, cytokine release); type: cell-based, C57BL/6 mice; details: ELISA of supernatant
TLR8 = molecular target: T1, TLR8 (Homo sapiens, UniProt Q9NR97); assay: TLR activation assay, HEK-Blue hTLR8 reporter cells; type: cell-based; details: 21 h incubation, same drug concentration
T1 construct: host or cells: HEK-Blue hTLR8 reporter cells (HEK293-derived, own knowledge)
T1 sequence (Q9NR97 27-1041): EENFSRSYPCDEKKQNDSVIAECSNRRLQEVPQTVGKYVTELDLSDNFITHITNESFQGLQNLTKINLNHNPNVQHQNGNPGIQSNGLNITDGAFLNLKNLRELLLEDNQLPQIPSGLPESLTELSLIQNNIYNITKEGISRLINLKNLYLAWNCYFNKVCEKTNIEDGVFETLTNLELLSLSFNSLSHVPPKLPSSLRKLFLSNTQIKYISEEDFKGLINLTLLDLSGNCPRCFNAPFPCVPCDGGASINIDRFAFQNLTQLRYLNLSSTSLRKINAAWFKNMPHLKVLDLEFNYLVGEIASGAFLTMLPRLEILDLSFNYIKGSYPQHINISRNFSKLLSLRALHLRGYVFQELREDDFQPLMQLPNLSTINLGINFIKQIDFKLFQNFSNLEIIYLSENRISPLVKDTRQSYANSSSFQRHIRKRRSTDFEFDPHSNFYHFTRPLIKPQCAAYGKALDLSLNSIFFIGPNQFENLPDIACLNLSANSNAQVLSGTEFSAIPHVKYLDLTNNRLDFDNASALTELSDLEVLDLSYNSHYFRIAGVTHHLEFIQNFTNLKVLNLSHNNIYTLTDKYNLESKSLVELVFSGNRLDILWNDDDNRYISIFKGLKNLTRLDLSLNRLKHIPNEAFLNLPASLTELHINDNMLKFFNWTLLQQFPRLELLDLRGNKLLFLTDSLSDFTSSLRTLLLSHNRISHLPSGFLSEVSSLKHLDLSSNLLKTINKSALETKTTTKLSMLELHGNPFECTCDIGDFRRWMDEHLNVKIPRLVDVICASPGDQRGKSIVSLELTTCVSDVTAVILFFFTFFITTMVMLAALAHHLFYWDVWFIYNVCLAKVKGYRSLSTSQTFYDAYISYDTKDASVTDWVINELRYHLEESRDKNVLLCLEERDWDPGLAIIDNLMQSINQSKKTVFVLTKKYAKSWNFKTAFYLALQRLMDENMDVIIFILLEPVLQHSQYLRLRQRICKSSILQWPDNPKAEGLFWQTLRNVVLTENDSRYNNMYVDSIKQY

CCOCc1nc2c(N)nc3ccccc3c2n1CC(C)(C)O [free R848, Resiquimod]
MHC-II expression on CD11b+ and CD11c+ APC subsets in DLN [1]: No significant differences | complete tumor regression (MC38 tumors): complete tumor regression was not observed | secretion of IL-6, TNFα and IL-12 [2]: dose-dependent release pattern that was similar for both samples | TLR8 activation (NF-kB colorimetric readout) (TLR8): roughly equivalent
